One assay concerns the target Pef1 (S. pombe) (UniProt O74456). In words: co-IP.
Another assay deals with T1, Psl1-GFP (S. pombe) (UniProt O42979).
T1 sequence: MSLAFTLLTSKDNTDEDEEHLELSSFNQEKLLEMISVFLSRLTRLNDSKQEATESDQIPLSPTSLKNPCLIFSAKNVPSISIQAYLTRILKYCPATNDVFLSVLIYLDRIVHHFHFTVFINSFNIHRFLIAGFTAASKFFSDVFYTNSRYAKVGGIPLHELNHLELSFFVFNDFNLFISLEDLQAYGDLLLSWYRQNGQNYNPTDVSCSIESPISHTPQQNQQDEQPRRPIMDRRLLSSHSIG
The assay can be described thus: co-IP.

Chains of the proteins cited; added tags and fusions are not shown.
UniProt O74456: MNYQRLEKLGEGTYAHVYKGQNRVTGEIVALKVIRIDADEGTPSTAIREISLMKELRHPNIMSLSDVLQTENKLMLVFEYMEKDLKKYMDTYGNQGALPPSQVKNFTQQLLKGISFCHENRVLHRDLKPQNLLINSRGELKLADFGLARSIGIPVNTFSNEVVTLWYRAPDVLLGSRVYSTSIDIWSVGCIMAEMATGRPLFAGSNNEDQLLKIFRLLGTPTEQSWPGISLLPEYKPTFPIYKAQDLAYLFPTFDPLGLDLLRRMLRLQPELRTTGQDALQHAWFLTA

These are yes or no findings as the source states them, for the method shown. In cells and extracts the contact can be indirect. Some binding calls cover weakened binding; strength is not graded here. For some assays here: Where a sequence is shown, tags or fusion partners need not be part of it.

For “cohesin (from UniProt O94383 1-1228; O42649 1-1194; P30776 1-628) (complex)”, the binding result in the assay with Pef1 (S. pombe) is given as “binds”.

B1: Psm1 (protein, UniProt O94383 1-1228)
chain: MGRLLRLEVENFKSYRGHQIIGPFEDFTSIIGPNGAGKSNLMDAISFVLGVKSSHLRSTNVKELIYRGKILQRDNTDFTDSSNPTTAYVKLMYELDNGEQREYKRAITPSGATEYKIDEEIVTFSEYCGSLQKENILVRARNFLVFQGDVETIASQSPLELSKLVEQISGSLEYKSEYDKSKDEQDKAVNLSAHSFNKKRGINAELRQYQEQKTEAERYQSQKEKRDSAQLVYLLWKLFHLEKSISSNMAEVTRLKADSIQLIERRDENTKEIEKLKEKEGSIRRNLLAFDRKVRKQEKLIASKRPELISIAEKALESKSNLRKIQRKAAEIEKDYSDQASTLQVLENQLTSLSAAEKEFLKDMQEKEQLKGLRLLPEDKEEYEGLRSEADKLNSNLLFKLQTLNRNIKVTSQSKDSLTSIVGDLESKIKSLHESVSSLDTERADLLAKINEKIESLELEKHDQQKKRLTYSELFHKTQELNEELQSCLQKILEASADRNESKQDAKKREALYALKRIYPEVKGRIIDLCTPTQKKYESAIAAALGKNFDAIVVETQAVAKECIDYIKEQRIGIMTFFPMDTIAASPVNQKFRGTHKGARLAIDVLNFESEYERVMISAVGNTLICDSMTVARDLSYNKRLNAKTVTLEGTVIHKTGLITGGSSNNRSAKHWDDHDFDLLTQTKDRLMHQIGEIEYQKSSCVITESDTVKLHSLESEISLLKDKYTVVSRSVEDKKKEIGHYESLIKEKQPHLSELEMELRNFVKSRDELQIQVEKVEEKIFSGFCKRIGISDIHTYDEIHRTFTQSFTQKQLEFTKQKSLLENRISFEKQRVSDTRLRLERMHKFIEKDQESIDNYEQNREALESEVATAEAELELLKEDFASENSKTEKILLAASEKKLVGKRLVSELTKLSGNITLLESEIDRYVSEWHAILRKCKLEDIDVPLREGSLTSIPIDDVSNSGDITMGEEPSEPVINFEKFGVEVDYDELDEELRNDGSESMASVLQEKLREYSEELDQMSPNLRAIERLETVETRLAKLDEEFAAARKAAKNAKERFNAVKQKRLQKFQAAFSHISEQIDPIYKELTKSPAFPLGGTAYLTLDDLDEPYLGGIKFHAMPPMKRFRDMDQLSGGEKTMAALALLFAIHSYQPSPFFVLDEIDAALDQTNVTKIANYIRQHASSGFQFVVISLKNQLFSKSEALVGIYRDQQENSSRTLSINLEGYVE
In the case of B1, the binding result with Psl1-GFP (S. pombe) is “binds”.

For the origin of these results see PMC6954021.
